Results deposited as PubChem BioAssay AID686943 (Drosophila RNAi Screening Center, 2013).

Screen: 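Fly genes whose loss alters ERK activation after insulin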 (primary screen)
Cells: Drosophila S2R+ haemocyte-like cells expressing YFP-tagged ERK (Rolled)
Reagents: long dsRNA against Drosophila genes
Challenge: insulin stimulation versus unstimulated cells; dose and duration not given
Measurement: 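Per-plate z-scores of phospho-ERK immunostaining normalised to YFP-tagged ERK, measured with and without insulin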
Direction: replicate 1, z-score of dpERK with insulin: higher = more active ERK per ERK-YFP after insulin
In all, the deposit lists about 23,000 reagents; below is a random part of those with a known target gene and a result. 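Extra replicates exist only for a retested subset of genes; insulin dose and duration not given; both raised and lowered dpERK matter.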 The numbers tell different reagents against one gene apart. A plus sign joins genes that one reagent is predicted to hit. Not all columns of the deposit are shown. No sequences are given here. The record does not give: the amount of reagent, the time to read-out.

CG6984 (GeneID 36926)
- replicate 1, z-score of dpERK with insulin: -0.86

CG14817 (GeneID 31145)
- replicate 1, z-score of dpERK with insulin: -0.16

Acp1 (GeneID 34052)
- replicate 1, z-score of dpERK with insulin: -0.22

pins (GeneID 53569)
- replicate 1, z-score of dpERK with insulin: -0.76

IntS3 (GeneID 3355010)
- replicate 1, z-score of dpERK with insulin: 0.12

Cpr64Ab (GeneID 38509)
- replicate 1, z-score of dpERK with insulin: -0.41

Pdk1 (GeneID 38017)
- replicate 1, z-score of dpERK with insulin: 2.26

CG34136 (GeneID 4379892)
- replicate 1, z-score of dpERK with insulin: 1.02

CG6664 (GeneID 39903)
- replicate 1, z-score of dpERK with insulin: 0.22

CG6550 (GeneID 36954)
- replicate 1, z-score of dpERK with insulin: -0.36

Or94b (GeneID 42712)
- replicate 1, z-score of dpERK with insulin: -0.85

Cpr49Ab (GeneID 36345)
- replicate 1, z-score of dpERK with insulin: 0.08

CG13501 (GeneID 37510)
- replicate 1, z-score of dpERK with insulin: -0.09

ths (GeneID 36258)
- replicate 1, z-score of dpERK with insulin: -0.92

Atg18b (GeneID 35396)
- replicate 1, z-score of dpERK with insulin: 1.28

Clc (GeneID 40221)
- replicate 1, z-score of dpERK with insulin: 0.19

Osi14 (GeneID 40770)
- replicate 1, z-score of dpERK with insulin: -0.1

CG9411 (GeneID 32392)
- replicate 1, z-score of dpERK with insulin: -0.68

CG13426 (GeneID 37312)
- replicate 1, z-score of dpERK with insulin: 0.22

S (GeneID 33281)
- replicate 1, z-score of dpERK with insulin: -0.58

NANS (GeneID 41528)
- replicate 1, z-score of dpERK with insulin: -0.22

wrd (GeneID 42169) #1
- replicate 1, z-score of dpERK with insulin: 0.84

wrd (GeneID 42169) #2
- replicate 1, z-score of dpERK with insulin: 0.05

Vps36 (GeneID 39523)
- replicate 1, z-score of dpERK with insulin: -0.04

car (GeneID 32947)
- replicate 1, z-score of dpERK with insulin: 0.88

CanB (GeneID 44317)
- replicate 1, z-score of dpERK with insulin: -0.03

CG12177 (GeneID 32326) #1
- replicate 1, z-score of dpERK with insulin: 1.6

CG12177 (GeneID 32326) #2
- replicate 1, z-score of dpERK with insulin: -0.07

Apc2 (GeneID 42871)
- replicate 1, z-score of dpERK with insulin: -0.18

Pgant4 (GeneID 261610)
- replicate 1, z-score of dpERK with insulin: 0.71

CR40450 + CG32767
- replicate 1, z-score of dpERK with insulin: -0.93

In a second layout: entries from further up.
{"gene knocked down":"Atg18b (GeneID 35396)","reagent":1,"replicate 1, z-score of dpERK with insulin":1.28}
{"gene knocked down":"Clc (GeneID 40221)","reagent":1,"replicate 1, z-score of dpERK with insulin":0.19}
{"gene knocked down":"Osi14 (GeneID 40770)","reagent":1,"replicate 1, z-score of dpERK with insulin":-0.1}
